Data source: PubChem BioAssay AID1259298 (Sanger Institute, 2017)
Shown is one part, drawn at random, of 794 reagents. Over the whole deposit, 20 (2.5%) got an active call. 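Calls rest only on the knock-down-alone score; drug synergy scores played no part in them.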 No viability above 1 is reported: the scale is capped. No sequences are given here. Not stated in the record: the amount of reagent, the time to read-out.

- Aim: 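Kinome knock-downs lethal on their own or synergising with anchor drugs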 (primary screen)
- System: HT55 human colorectal cancer cell line
- Knock-down reagent: siRNA pool against human genes
- Treatment: anchor drug BYL719 1 µM, cetuximab 5 µg/ml or trametinib 10 nM, or DMSO vehicle alone
- Detection: 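Mean viability over replicates versus non-targeting pool, a robust z-score without drug, and per-drug synergy scores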
- Scale: robust z-score, knock-down alone: higher = more cells remaining; low means essential gene; viability vs control pool, no drug: higher = more viable cells; synergy score with BYL719 and synergy score with cetuximab and synergy score with trametinib: higher = stronger synthetic lethality with the drug
- Hit rule: 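Essential when the robust z-score for knock-down alone with DMSO is below -3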
- Meaning of the calls: active = essential (knock-down alone); inactive = no change alone

| gene symbol | robust z-score, knock-down alone | viability vs control pool, no drug (fraction) | synergy score with BYL719 | synergy score with cetuximab | synergy score with trametinib | call |
| --- | --- | --- | --- | --- | --- | --- |
| PHKG1 | 0.58 | 1 | -0.257 | -0.211 | -0.111 | inactive |
| PSTK | 0.58 | 1 | -0.189 | 0.0315 | -0.0268 | inactive |
| LCK | 0.58 | 1 | -0.205 | -0.0064 | -0.0235 | inactive |
| ABL2 | 0.58 | 1 | -0.107 | -0.0752 | -0.0133 | inactive |
| CKMT1B | 0.487 | 0.993 | -0.0512 | -0.157 | -0.0171 | inactive |
| MAPK6 | 0.58 | 1 | 0.0088 | -0.131 | 0.119 | inactive |
| EFNA3 | 0.348 | 0.982 | -0.135 | -0.226 | -0.00752 | inactive |
| NUP62 | -0.24 | 0.936 | -0.216 | -0.0644 | -0.0419 | inactive |
| PTGS1 | 0.58 | 1 | -0.0805 | -0.0475 | 0.202 | inactive |
| AXL | 0.58 | 1 | -0.137 | -0.211 | -0.0692 | inactive |
| STK35 | 0.58 | 1 | -0.272 | -0.155 | 0.0576 | inactive |
| SMAD2 | -1.07 | 0.871 | -0.151 | -0.236 | -0.144 | inactive |
| PDGFRB | -1.88 | 0.808 | 0.0114 | -0.229 | -0.0305 | inactive |
| GUCY2F | -0.0582 | 0.95 | -0.305 | -0.16 | -0.0377 | inactive |
| PKM | 0.58 | 1 | -0.153 | -0.104 | 0.0903 | inactive |
| KALRN | 0.58 | 1 | -0.237 | -0.116 | 0.0867 | inactive |
| NUP98 | -3.61 | 0.672 | -0.0507 | -0.121 | -0.178 | active |
| MLKL | 0.58 | 1 | -0.244 | -0.174 | -0.16 | inactive |
| PDXK | 0.58 | 1 | -0.272 | -0.211 | -0.148 | inactive |
| PTEN | 0.58 | 1 | -0.136 | -0.0652 | 0.000119 | inactive |
| SKAP1 | 0.58 | 1 | -0.272 | -0.211 | -0.00483 | inactive |
| RIPK4 | 0.58 | 1 | -0.139 | -0.18 | -0.083 | inactive |
| PIP4K2C | 0.58 | 1 | -0.122 | 0.00471 | 0.033 | inactive |
| PGK2 | 0.58 | 1 | -0.26 | -0.0771 | 0.0511 | inactive |
| PTK7 | -2.39 | 0.768 | -0.0523 | 0.0252 | -0.141 | inactive |
| GNE | 0.58 | 1 | -0.142 | -0.0213 | 0.073 | inactive |
| SRPK1 | 0.58 | 1 | -0.1 | -0.0249 | -0.0336 | inactive |
| GATA3 | 0.25 | 0.974 | -0.0251 | 0.0311 | -0.00192 | inactive |
| FN1 | 0.513 | 0.995 | -0.166 | -0.0357 | -0.0145 | inactive |
| MYH10 | 0.58 | 1 | -0.195 | -0.0894 | -0.0532 | inactive |
| MAP4K3 | 0.315 | 0.979 | -0.0134 | -0.142 | 0.139 | inactive |
| KSR1 | -1.87 | 0.808 | -0.164 | 0.113 | 0.119 | inactive |

Reprinted from the listing for reference:
| gene symbol | robust z-score, knock-down alone | viability vs control pool, no drug (fraction) | synergy score with BYL719 | synergy score with cetuximab | synergy score with trametinib | call |
| --- | --- | --- | --- | --- | --- | --- |
| PDGFRB | -1.88 | 0.808 | 0.0114 | -0.229 | -0.0305 | inactive |
| GUCY2F | -0.0582 | 0.95 | -0.305 | -0.16 | -0.0377 | inactive |
| PKM | 0.58 | 1 | -0.153 | -0.104 | 0.0903 | inactive |
